Laboratory results taken from PubChem BioAssay AID493014 (National Center for Advancing Translational Sciences (NCATS), 2011).
This is one part of the list. Further columns of the screen follow, without active or inactive calls. Most of these compounds were active or inconclusive in the main read-out, so they are no random draw. Potencies come from curve fits of mixed quality, noted in brackets.

Assay: qHTS Assay to Find Inhibitors of Chronic Active B-Cell Receptor Signaling
Details: ABC-DLBCL IkBa-CBG/CBR reporter, luminescence ratio (green luciferase fused to IkBa over red control in TMD8 lymphoma cells), 4 h
Procedure, shortened: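 Concentration-response series (up to 46 uM) were applied to TMD8 dual-reporter cells for 4 h at 37C with doxycycline. Green/red ratio, after filter-overlap correction, defined %Activity; red signal alone was normalised to basal cells and zero luminescence.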

[1] = measured here: CBR red luminescence, cell number
[2] = measured here: IkBa-CBG green luminescence

SMILES	AC50 [1]	AC50 [2]
CCOc1ccccc1NC(=O)c1c(NCc2cccs2)sc2c1CCCCC2	14.1 µM [rising, partial curve, poor fit]	
O=C(CSC1c2ccccc2-c2ccccc21)N/N=C/c1ccccc1O	32.6 µM [falling, single point]	
CCc1ccc(-c2cc(C)no2)cc1S(=O)(=O)Nc1ccccn1	6.31 µM [rising, full curve, poor fit]	
CCC(C)NC(=O)CCC(=O)OC1O[C@H]2OC3(C)CC[C@H]4[C@H](C)CCC(C1C)C24OO3 (stereo partly drawn)	8.91 µM [rising, partial curve, poor fit]	
CC(NCc1ccc(Cl)c(Cl)c1)C(O)c1ccccc1 (stereo not drawn)	0.517 µM [rising, partial curve, poor fit]	
C[C@]12CC[C@H](N)CC1=CCC1C2CC[C@@]2(C)C1CC[C@@H]2O (stereo partly drawn)	29.1 µM [falling, single point]	
CC(=O)Nc1ccccc1C(=O)OCC(=O)c1ccccc1Cl	4.61 µM [rising, partial curve, poor fit]	
COc1cc(/C=C2/C(=O)NC(=O)N(c3ccc(C)cc3)C2=O)cc(OC)c1OC	0.501 µM [rising, partial curve, poor fit]	
COCCNC(=O)c1c(N)n(Cc2ccco2)c2nc3ccccc3nc12	0.316 µM [falling, full curve, poor fit]	
COc1ccccc1OCC#CCN1CCCC(C)C1 (stereo not drawn)	11.2 µM [rising, partial curve, poor fit]	
CCOc1ccc(-c2cc(C)[n+](CCN(CC)CC)c(-c3ccc(OCC)cc3)c2)cc1	15.8 µM [falling, single point]	
COC(=O)C1=C(N)Oc2c(c(=O)oc3ccccc23)C1c1cccnc1 (stereo not drawn)	1.84 µM [falling, full curve, poor fit]	
CCNC(=O)[C@H]1O[C@@H](n2cnc3c(N)ncnc32)[C@H](O)[C@@H]1O	0.794 µM [rising, full curve, poor fit]	0.112 µM [falling, full curve, poor fit]
CCCCC/C=C\C/C=C\C/C=C\C/C=C\CCCC(=O)Nc1ccc(O)cc1	2.24 µM [rising, partial curve, poor fit]	
COC(=O)C1=C(c2ccc(OC(F)(F)F)cc2)C[C@@H]2CC[C@H]1N2C(=O)NCCCOC(C)C	6.51 µM [rising, single point]	
COc1cccc(NP(=O)(Oc2ccc(Cl)cc2)Oc2ccc(Cl)cc2)c1	14.6 µM [falling, partial curve]	
CN(C)c1ccc(/C=C/C=C/c2sc3ccccc3[n+]2C)cc1	10 µM [falling, partial curve, poor fit]	
COc1cc(C(=O)/C=C/c2cccnc2)ccc1O	8.91 µM [falling, partial curve, poor fit]	

SMILES	AC50 [1]	AC50 [2]
O=c1[nH]c(=S)n(C2CC2)c(O)c1/C=N/Nc1cccc2ccccc12	13 µM [falling, partial curve]	
O=C1C(c2ccccc2)=C(N2CC2)c2ccccc21	0.112 µM [rising, full curve, poor fit]	
CCOc1ccc(-n2cnc3scc(-c4ccc(OC)c(OC)c4)c3c2=O)cc1	11.2 µM [rising, partial curve, poor fit]	
COc1ccccc1C1C([N+](=O)[O-])=C(N)Oc2c1c(=O)oc1ccccc21 (stereo not drawn)	0.501 µM [falling, full curve]	
O=C(Cn1c(=O)oc2ccccc21)NCc1ccccc1Cl	5.01 µM [falling, full curve, poor fit]	
COc1ccc(Oc2cc(NC(=O)c3nn(C)cc3[N+](=O)[O-])cc([N+](=O)[O-])c2)cc1	0.92 µM [falling, full curve, poor fit]	
CC1CCCC(C)N1C(=O)CSc1nc2c(c(=O)n(C)c(=O)n2C)n1C (stereo not drawn)	4.47 µM [falling, full curve]	
COC(=O)C1=C(c2ccc(F)cc2OCc2ccccc2)C[C@@H]2CC[C@H]1N2C(=O)NCc1ccccc1	29.1 µM [falling, single point]	
O=C1NC(=S)N(c2ccc(Br)cc2)C(=O)/C1=C/N1CCN(C(=O)c2ccco2)CC1	35.5 µM [rising, single point]	
C/C(=N\N1CCCCC1)c1c(O)[nH]c(=O)[nH]c1=O	1.46 µM [rising, full curve, poor fit]	5.8 µM [falling, partial curve, poor fit]
COC(=O)C1=C(c2ccc(Cl)c(C(F)(F)F)c2)C[C@@H]2CC[C@H]1N2C(=O)NCCCOC(C)C	29.1 µM [falling, single point]	
O=C(CSc1n[nH]c(=O)n1C1CC1)Nc1cc(Cl)ccc1Oc1ccccc1	14.1 µM [falling, partial curve, poor fit]	
O=C1NC(=O)N(Cc2ccccc2)C(=O)/C1=C/C=C/c1ccco1	35.5 µM [rising, single point]	35.5 µM [falling, single point]
CC(C)(C)n1cc(C(=O)c2ccccc2OCCCF)cn1	0.251 µM [rising, full curve, poor fit]	
COc1cc(OC)c2c(c1)O[C@@H](c1ccc(OC)c(OC)c1)[C@H](O)C2		15.8 µM [falling, partial curve, poor fit]
Cn1c(=O)c2c(ncn2CCCl)n(C)c1=O	7.94 µM [falling, partial curve, poor fit]	
CC[N+](CC)(CC)CCCOC(=O)C(O)(c1ccccc1)C1CCCCC1 (stereo not drawn)	23.1 µM [rising, single point]	

Reformatted as labelled records: entries from further up.
CC(NCc1ccc(Cl)c(Cl)c1)C(O)c1ccccc1 (stereo not drawn)
  AC50 [1]: 0.517 µM [rising, partial curve, poor fit]
C[C@]12CC[C@H](N)CC1=CCC1C2CC[C@@]2(C)C1CC[C@@H]2O (stereo partly drawn)
  AC50 [1]: 29.1 µM [falling, single point]
